Among the data in paper PMC5838202 are binding values, retold here.

By UniProt entry, the sequences of proteins in these tests, tags left out. Where a name states a change or a piece, a line headed by the entry shows the natural chain unless it says otherwise. Chains listed by the source or under a name are the forms on record and can include a tag or linker.
UniProt P06748: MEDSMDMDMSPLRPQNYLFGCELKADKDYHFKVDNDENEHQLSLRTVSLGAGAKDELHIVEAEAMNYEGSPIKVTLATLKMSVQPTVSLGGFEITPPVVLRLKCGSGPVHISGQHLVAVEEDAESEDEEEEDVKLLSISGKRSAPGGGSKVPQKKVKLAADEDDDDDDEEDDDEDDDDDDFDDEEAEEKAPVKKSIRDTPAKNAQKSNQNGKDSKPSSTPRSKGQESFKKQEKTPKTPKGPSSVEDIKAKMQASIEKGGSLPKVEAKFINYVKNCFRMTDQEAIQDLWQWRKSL
G196-NPM1 (LG) (P06748, form named): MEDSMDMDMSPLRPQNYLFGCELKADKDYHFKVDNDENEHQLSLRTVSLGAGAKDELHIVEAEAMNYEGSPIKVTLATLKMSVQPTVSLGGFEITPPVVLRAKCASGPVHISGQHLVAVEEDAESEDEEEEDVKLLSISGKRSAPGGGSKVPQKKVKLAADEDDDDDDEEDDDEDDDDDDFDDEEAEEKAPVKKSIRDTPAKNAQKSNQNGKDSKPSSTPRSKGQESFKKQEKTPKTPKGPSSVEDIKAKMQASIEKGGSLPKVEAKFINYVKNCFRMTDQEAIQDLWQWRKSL
NPM1c, endogenous in OCI-AML3 cells (P06748, form named): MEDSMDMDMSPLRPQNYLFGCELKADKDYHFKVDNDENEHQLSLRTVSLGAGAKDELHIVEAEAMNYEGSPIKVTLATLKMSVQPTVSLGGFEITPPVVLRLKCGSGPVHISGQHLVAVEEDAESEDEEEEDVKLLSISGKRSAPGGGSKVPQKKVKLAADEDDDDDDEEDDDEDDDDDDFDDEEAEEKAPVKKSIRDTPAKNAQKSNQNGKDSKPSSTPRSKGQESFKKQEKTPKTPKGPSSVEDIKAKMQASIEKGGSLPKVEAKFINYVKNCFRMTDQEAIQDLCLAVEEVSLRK

Experiment [1] has as its target G196-NPM1 (LG) (human) (UniProt P06748). Put plainly: SEC; Triton X-100 soluble lysate of transfected 293T cells, without RNase A; Superdex 200 Increase 10/300 GL in PBS with 1% Triton X-100; fractions by immunoblot.
In experiment [2] the target is NPM1 (WT), endogenous in OCI-AML3 cells (human (endogenous in OCI-AML3)) (UniProt P06748). Nature of the experiment: co-IP; OCI-AML3 cells lysed in PBS with 1% Triton X-100, 0.1% SDS, 0.5% DOC and 15 mM imidazole; immunoprecipitated with anti-NPM1 (FC82291, does not recognize NPM1c); immunoblot.
Experiment [3] has as its target G196-NPM1 (LG) (human) (UniProt P06748). Put plainly: co-IP; anti-G196 antibody on Protein G Sepharose; Triton X-100 soluble and insoluble lysates of transfected 293T cells, treated with RNase A (40 µg/ml, 15 min, 37 °C); immunoblot.

Results are given in words; binding and its absence hold for the method and conditions named. For part of these data: Binding seen in cells or lysates may run through a third protein. Some results given as binding are weak or reduced against the parent protein; the word gives no strength.

As for “G196-NPM1 (LG) (from UniProt P06748 1-294)”, the binding entry with G196-NPM1 (LG) (human) [1] is “no binding”.
As for “NPM1c, endogenous in OCI-AML3 cells (from UniProt P06748 1-294)”, the binding result in experiment [2] is “binds”.
For “endogenous NPM1 (293T cells) (from UniProt P06748 1-294)”, in the experiment with G196-NPM1 (LG) (human) [3], the binding result is listed as “no binding”.
